These results are taken from PMC4712141.

Chains of the proteins cited; added tags and fusions are not shown. Lines headed by an entry give the natural chain unless they say otherwise; changes in a name come on top. A line that says so, or that is headed by a name, gives the form on record, which may keep a tag or linker. Residues count along the entry.
UniProt A0A509AQ20: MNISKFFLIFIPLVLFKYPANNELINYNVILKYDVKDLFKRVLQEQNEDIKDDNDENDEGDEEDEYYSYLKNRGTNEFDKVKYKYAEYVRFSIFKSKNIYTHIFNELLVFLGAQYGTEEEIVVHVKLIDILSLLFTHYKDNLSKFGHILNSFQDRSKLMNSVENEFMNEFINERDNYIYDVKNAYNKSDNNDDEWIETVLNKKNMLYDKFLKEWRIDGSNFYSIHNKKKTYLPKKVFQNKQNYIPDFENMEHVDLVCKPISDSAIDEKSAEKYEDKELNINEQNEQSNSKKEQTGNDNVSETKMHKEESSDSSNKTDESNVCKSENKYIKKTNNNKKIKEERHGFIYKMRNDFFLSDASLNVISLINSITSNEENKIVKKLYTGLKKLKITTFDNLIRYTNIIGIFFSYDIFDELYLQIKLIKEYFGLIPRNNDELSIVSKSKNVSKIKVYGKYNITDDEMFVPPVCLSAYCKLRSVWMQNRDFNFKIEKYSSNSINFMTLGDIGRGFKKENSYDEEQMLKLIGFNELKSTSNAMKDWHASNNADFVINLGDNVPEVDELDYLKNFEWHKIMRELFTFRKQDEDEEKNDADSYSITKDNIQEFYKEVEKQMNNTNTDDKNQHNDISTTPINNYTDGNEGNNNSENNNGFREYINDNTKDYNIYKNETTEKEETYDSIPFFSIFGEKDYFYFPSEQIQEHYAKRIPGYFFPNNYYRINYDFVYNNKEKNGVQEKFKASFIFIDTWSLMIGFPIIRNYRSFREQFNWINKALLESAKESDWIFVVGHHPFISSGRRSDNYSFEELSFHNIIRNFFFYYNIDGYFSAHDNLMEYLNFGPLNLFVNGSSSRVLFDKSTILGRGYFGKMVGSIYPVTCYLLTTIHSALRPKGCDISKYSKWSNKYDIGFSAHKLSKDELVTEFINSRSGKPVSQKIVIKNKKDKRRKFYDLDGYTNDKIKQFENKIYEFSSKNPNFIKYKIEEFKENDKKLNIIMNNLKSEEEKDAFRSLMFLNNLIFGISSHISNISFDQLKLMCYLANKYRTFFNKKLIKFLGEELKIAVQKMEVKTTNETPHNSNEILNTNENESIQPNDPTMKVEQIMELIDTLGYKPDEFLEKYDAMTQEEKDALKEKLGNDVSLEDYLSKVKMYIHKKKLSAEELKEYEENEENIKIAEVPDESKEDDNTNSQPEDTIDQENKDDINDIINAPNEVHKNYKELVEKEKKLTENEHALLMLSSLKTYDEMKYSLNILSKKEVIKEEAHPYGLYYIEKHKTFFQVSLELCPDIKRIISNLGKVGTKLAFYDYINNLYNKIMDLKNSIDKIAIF
GST- and His-tagged PbUIS2 PD: residues 535-1054 of A0A509AQ20

No constants are given. Whether binding was seen depends on the method and setting. For part of these data: In cells and extracts the contact can be indirect. Some entries that bind do so weakly or less than the wild type.

Assay [1] addresses GST-PfeIF2αS59D (P. falciparum) (UniProt Q8IBH7). In words: pull-down; GST-PfeIF2α (wt, S59A or S59D) immobilized on glutathione column, incubated 2 hours with lysates of P. berghei blood stage parasites with or without Sal (50 μM) or GA (70 μM); 3 washes with high-salt NETN buffer (300 mM NaCl, 20 mM Tris-HCl pH 8.0, 0.5 mM EDTA, 0.5% NP-40); eluted with reduced glutathione; immunoblot; only the target purified.

In assay [2] the target is GST-PfeIF2αS59A (P. falciparum) (UniProt Q8IBH7). The description is as above.
Assay [3] has as its target GST- and His-tagged PbUIS2 PD (P. berghei). In words: pull-down; GST- and His-tagged PbUIS2 N-ter, PD or C-ter immobilized on glutathione sepharose 4B, incubated with purified recombinant PfeIF2α-P or PfeIF2α; 3 washes with high-salt NETN buffer (300 mM NaCl, 20 mM Tris-HCl pH 8.0, 0.5 mM EDTA, 0.5% NP-40); SDS-PAGE, coomassie staining; retained band identified by mass spectrometry; both purified.

Turning to “endogenous P. berghei UIS2 (from UniProt A0A509AQ20 23-1322) (enzyme)”, the binding result in assay [1] is on record as “binds”; in assay [2] it was “no binding”.

B1: purified recombinant PfeIF2α-P (protein, UniProt Q8IBH7 1-329)
chain: MTEMRVKADLGDCRFYKKKFPEVDDLIMVKVNRIEDMGAYVSILEYNDMEGMILMSELSKRRFRSVNKLIRVGRHEVVLVLRVDSQKGYIDLSKRRVSPKDIIKCEEKFSKSKKVHQTVRHVAKEHGITVEELNEKAIWPLYERYGHALDALKEATMNPENVFKGLDISEEIKNSLLKDIKLRLTPQALKLRGRIDVWCFGYEGIDAVKEALKKGKEISNDKVSINIKLIAPPQYVIVTSCHDKDLGMAKIQEAMKVISDKIKEYKGGDFKQQGEILVIGGDEEKRLEELLDKHDGISSDDDDYNTSDEDDENSSEEDENTSEDEEEED
modifications: phosphorylated (eIF2α-P); regulatory ser59
On to B1, for which, in assay [3], the binding result is on record as “no binding”.
